Data published in patent US11639360B2, “Oxazine compound and application thereof” (DALIAN UNIVERSITY OF TECHNOLOGY, priority 2018, dated 2023).

Test: Singlet oxygen yield determination under illumination (DPBF, methylene blue as reference)
Type: physicochemical
Settings: methanol, xenon lamp 660 nanometers

Row | SMILES | singlet oxygen photon yield
1 | CC/N=c1/cc2sc3c4c5c(cc3nc-2c2ccccc12)CCCN5CCC4 [Compound F-1] | about 0.018
2 | CC/N=c1/cc2[te]c3c4c5c(cc3nc-2c2ccccc12)CCCN5CCC4 [Compound F-3] | about 0.73
3 | CC/N=c1/cc2[se]c3c4c5c(cc3nc-2c2ccccc12)CCCN5CCC4 [Compound F-2] | about 0.47
